No constants are given. Whether binding was seen depends on the method and setting. In cells and extracts the contact can be indirect. Some results given as binding are weak or reduced against the parent protein; the word gives no strength. Blank lines part the entries; values can stand above or below the molecule they belong to.
What was measured:
[1] = target: T1, dynamin 1 (rat cerebellum) (rat (endogenous in cerebellum)) (UniProt P21575); experiment: co-IP; rat cerebellar extract immunoprecipitated with a panel of antibodies (anti-ΔP, anti-BDL, Fab7, anti-dynamin); immunoblot for dynamin and GluR4
T1 sequence: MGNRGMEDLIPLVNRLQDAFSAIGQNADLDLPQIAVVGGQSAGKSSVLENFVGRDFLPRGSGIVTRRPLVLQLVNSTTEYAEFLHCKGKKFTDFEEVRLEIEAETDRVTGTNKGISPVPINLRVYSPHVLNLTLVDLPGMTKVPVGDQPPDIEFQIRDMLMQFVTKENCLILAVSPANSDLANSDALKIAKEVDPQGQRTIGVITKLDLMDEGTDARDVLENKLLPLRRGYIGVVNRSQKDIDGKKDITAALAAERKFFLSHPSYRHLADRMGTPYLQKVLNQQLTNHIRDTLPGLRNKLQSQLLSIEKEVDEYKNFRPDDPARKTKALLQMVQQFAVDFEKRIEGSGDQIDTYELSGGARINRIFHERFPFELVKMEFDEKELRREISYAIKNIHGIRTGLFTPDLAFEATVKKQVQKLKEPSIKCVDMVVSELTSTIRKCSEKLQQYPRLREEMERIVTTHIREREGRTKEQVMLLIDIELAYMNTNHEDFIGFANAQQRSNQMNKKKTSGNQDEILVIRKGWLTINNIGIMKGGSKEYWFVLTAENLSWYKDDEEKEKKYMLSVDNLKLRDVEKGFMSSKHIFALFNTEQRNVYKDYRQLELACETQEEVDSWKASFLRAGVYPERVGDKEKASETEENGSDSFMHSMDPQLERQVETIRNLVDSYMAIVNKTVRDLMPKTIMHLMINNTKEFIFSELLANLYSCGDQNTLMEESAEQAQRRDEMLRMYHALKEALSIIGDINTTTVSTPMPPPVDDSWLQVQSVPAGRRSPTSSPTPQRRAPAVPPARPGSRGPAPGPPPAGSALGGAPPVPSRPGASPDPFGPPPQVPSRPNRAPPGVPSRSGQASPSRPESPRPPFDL

The chains behind the UniProt entries cited, without tags or fusion partners. Residues count along the entry.
UniProt Q811D0: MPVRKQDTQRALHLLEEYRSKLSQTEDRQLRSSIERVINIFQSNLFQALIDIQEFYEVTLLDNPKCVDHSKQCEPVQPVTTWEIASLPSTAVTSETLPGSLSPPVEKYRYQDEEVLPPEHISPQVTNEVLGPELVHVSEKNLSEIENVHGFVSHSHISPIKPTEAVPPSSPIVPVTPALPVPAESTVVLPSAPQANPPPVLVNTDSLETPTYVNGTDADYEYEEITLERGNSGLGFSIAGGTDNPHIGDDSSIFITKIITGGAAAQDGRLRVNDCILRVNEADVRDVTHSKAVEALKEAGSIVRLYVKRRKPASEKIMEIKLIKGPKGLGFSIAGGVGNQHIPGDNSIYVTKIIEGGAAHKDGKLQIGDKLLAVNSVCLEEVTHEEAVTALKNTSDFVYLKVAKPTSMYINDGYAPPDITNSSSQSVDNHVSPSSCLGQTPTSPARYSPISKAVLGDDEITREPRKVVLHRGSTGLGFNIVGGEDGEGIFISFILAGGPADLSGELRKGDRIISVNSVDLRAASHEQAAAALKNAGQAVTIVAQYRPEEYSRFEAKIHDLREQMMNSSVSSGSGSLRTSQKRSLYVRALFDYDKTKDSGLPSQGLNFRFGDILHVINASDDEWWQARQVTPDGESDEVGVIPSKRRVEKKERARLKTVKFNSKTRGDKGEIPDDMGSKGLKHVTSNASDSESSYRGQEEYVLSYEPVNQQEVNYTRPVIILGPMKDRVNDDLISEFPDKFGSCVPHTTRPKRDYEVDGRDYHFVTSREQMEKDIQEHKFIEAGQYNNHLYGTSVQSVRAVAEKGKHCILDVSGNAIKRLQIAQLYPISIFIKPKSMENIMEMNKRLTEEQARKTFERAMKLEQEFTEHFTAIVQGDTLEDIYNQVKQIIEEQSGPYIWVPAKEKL
UniProt P23818, residues 19-907: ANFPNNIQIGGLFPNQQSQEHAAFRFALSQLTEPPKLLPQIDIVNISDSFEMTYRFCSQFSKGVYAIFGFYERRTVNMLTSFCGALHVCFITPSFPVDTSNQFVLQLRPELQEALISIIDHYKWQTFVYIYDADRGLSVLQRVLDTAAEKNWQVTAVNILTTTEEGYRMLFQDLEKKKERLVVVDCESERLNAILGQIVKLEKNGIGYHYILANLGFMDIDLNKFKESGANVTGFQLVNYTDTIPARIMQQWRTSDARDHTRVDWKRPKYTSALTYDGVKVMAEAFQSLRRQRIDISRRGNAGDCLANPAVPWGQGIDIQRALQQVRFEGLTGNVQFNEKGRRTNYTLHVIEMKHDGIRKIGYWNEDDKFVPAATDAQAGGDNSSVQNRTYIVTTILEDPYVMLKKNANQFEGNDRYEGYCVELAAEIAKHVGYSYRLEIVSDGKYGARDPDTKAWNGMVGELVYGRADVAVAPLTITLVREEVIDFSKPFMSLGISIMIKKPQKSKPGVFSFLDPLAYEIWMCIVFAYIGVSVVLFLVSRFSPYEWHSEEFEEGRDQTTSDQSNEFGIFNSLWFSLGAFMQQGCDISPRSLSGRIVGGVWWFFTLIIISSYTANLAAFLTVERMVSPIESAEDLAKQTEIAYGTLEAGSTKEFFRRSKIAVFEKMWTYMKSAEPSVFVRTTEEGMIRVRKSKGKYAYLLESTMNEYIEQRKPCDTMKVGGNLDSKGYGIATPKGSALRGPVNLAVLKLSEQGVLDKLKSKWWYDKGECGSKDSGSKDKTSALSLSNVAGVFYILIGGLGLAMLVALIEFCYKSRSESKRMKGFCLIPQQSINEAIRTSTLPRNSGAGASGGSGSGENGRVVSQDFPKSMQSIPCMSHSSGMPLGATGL
UniProt Q62696: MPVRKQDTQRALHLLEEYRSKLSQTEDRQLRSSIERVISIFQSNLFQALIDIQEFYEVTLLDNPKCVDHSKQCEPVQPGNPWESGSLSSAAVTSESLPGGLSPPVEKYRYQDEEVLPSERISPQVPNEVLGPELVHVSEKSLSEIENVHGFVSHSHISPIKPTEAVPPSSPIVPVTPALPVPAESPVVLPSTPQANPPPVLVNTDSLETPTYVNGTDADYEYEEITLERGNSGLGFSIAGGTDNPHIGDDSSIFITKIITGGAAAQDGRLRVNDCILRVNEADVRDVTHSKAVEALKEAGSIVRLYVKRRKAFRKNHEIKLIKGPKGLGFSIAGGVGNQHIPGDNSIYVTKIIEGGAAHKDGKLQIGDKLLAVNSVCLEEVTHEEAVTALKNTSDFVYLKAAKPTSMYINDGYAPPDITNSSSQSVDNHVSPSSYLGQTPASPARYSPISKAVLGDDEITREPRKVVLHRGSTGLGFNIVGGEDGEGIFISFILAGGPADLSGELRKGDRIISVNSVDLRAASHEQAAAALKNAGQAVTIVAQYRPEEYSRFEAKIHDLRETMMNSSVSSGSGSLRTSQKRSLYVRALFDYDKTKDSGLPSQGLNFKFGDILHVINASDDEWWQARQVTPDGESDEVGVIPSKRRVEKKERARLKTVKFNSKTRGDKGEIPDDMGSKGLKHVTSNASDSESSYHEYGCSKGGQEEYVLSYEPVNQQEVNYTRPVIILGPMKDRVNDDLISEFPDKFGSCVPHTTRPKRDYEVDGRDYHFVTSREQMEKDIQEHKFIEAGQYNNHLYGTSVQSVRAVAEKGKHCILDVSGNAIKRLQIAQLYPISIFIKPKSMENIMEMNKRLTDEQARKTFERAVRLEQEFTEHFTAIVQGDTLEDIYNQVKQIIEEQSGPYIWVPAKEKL
UniProt P19493, residues 21-902: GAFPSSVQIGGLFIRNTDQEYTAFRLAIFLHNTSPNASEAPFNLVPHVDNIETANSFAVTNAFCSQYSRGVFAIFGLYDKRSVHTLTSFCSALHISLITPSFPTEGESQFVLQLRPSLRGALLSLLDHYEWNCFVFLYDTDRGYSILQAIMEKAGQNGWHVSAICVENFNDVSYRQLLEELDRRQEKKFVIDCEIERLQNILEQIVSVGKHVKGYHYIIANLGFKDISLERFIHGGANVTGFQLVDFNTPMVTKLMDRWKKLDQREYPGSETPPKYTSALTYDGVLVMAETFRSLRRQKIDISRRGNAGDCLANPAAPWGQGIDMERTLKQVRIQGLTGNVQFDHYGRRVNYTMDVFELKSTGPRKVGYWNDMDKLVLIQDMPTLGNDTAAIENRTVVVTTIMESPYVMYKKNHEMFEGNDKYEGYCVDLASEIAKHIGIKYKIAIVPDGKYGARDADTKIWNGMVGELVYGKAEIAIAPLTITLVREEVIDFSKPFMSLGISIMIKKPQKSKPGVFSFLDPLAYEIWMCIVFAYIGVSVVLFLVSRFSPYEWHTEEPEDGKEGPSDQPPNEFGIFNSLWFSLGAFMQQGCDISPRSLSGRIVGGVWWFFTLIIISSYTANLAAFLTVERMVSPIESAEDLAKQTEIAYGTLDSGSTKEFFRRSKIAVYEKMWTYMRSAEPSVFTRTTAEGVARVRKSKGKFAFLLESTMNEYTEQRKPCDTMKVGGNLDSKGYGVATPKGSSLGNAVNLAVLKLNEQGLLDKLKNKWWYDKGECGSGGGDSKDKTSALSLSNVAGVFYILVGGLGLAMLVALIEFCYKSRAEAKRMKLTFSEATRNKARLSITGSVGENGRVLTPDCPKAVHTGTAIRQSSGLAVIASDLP
UniProt Q9Z2H5: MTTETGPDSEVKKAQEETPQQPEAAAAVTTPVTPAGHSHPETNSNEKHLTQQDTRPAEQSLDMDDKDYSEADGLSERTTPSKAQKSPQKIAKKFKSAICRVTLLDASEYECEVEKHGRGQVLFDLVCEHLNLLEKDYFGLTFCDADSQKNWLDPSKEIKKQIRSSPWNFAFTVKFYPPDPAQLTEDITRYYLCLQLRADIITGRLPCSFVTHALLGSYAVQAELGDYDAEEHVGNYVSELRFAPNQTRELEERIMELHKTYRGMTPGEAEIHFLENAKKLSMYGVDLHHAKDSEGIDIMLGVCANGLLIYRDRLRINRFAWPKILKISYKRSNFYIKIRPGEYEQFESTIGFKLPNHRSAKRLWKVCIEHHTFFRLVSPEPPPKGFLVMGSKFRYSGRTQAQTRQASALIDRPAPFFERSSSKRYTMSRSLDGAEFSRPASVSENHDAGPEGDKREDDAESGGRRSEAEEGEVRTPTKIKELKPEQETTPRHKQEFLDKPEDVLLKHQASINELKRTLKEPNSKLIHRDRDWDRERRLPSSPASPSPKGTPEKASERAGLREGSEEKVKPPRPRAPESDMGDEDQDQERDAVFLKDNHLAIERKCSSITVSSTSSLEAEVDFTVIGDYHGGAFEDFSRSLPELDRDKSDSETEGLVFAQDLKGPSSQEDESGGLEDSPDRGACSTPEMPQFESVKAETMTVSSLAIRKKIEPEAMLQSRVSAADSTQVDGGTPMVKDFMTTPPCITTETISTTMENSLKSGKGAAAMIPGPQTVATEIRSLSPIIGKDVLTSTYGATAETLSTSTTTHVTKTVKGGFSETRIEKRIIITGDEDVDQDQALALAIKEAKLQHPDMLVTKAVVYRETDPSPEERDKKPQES
UniProt Q9Z2W8, residues 21-902: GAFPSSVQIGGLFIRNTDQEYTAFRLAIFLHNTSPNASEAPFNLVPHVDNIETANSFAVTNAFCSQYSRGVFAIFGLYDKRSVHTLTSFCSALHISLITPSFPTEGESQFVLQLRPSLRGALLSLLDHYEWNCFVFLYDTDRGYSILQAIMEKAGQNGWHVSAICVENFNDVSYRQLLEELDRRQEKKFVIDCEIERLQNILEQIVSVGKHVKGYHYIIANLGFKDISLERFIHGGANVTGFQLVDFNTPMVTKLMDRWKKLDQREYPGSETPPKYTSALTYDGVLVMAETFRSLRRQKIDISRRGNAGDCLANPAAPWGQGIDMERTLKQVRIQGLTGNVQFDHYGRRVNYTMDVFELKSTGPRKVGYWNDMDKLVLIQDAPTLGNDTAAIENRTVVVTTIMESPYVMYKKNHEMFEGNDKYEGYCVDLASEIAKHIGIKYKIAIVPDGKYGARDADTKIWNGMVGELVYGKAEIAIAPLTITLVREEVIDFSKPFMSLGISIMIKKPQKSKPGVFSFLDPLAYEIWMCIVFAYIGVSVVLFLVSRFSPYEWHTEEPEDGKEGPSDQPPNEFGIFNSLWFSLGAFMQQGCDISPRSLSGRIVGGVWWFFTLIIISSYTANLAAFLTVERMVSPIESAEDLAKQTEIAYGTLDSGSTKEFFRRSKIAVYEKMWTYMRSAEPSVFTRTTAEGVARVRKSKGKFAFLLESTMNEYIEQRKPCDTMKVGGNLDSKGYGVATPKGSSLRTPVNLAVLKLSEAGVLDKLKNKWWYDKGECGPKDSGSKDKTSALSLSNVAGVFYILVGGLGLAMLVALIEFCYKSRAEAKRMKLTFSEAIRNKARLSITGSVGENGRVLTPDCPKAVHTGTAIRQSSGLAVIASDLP

[2] = target: native SAP97 (mouse brain) (mouse (endogenous in brain)) (UniProt Q811D0); experiment: co-IP; whole brain detergent extracts (TNE buffer, 1% Nonidet P-40, 1% Triton-X 100) of adult wild-type and GluA1-/- mice; precipitation with antisera or Fab7, preimmune sera as controls; immunoblot
[3] = target: native GluA1 (mouse brain) (mouse (endogenous in brain)) (UniProt P23818); experiment: as above
[4] = target: myc-tagged SAP97 (UniProt Q62696); experiment: co-IP; HEK293 cells co-transfected (1:1) with flag-tagged GluA4 constructs and myc-tagged SAP97; detergent extracts (TNE buffer, 1% Nonidet P-40, 1% Triton-X 100), overnight at 4°C, GammaBind G-Sepharose; immunoblot
[5] = target: native GluA4 (rat cerebellum) (rat (endogenous in cerebellum)) (UniProt P19493); experiment: co-IP; rat cerebellar extract immunoprecipitated with a panel of antibodies (anti-ΔP, anti-BDL, Fab7, anti-dynamin); immunoblot for dynamin and GluR4

binding [1]: no binding
Molecule: native GluA4 (rat cerebellum) (from UniProt P19493 21-902) (receptor)

binding [4]: no binding
Molecule: flag-tagged full-length wild-type GluA4 (from UniProt P19493 21-902) (receptor)

binding [5]: no binding
B1: dynamin 1 (rat cerebellum) (protein, UniProt P21575 1-864)
chain: MGNRGMEDLIPLVNRLQDAFSAIGQNADLDLPQIAVVGGQSAGKSSVLENFVGRDFLPRGSGIVTRRPLVLQLVNSTTEYAEFLHCKGKKFTDFEEVRLEIEAETDRVTGTNKGISPVPINLRVYSPHVLNLTLVDLPGMTKVPVGDQPPDIEFQIRDMLMQFVTKENCLILAVSPANSDLANSDALKIAKEVDPQGQRTIGVITKLDLMDEGTDARDVLENKLLPLRRGYIGVVNRSQKDIDGKKDITAALAAERKFFLSHPSYRHLADRMGTPYLQKVLNQQLTNHIRDTLPGLRNKLQSQLLSIEKEVDEYKNFRPDDPARKTKALLQMVQQFAVDFEKRIEGSGDQIDTYELSGGARINRIFHERFPFELVKMEFDEKELRREISYAIKNIHGIRTGLFTPDLAFEATVKKQVQKLKEPSIKCVDMVVSELTSTIRKCSEKLQQYPRLREEMERIVTTHIREREGRTKEQVMLLIDIELAYMNTNHEDFIGFANAQQRSNQMNKKKTSGNQDEILVIRKGWLTINNIGIMKGGSKEYWFVLTAENLSWYKDDEEKEKKYMLSVDNLKLRDVEKGFMSSKHIFALFNTEQRNVYKDYRQLELACETQEEVDSWKASFLRAGVYPERVGDKEKASETEENGSDSFMHSMDPQLERQVETIRNLVDSYMAIVNKTVRDLMPKTIMHLMINNTKEFIFSELLANLYSCGDQNTLMEESAEQAQRRDEMLRMYHALKEALSIIGDINTTTVSTPMPPPVDDSWLQVQSVPAGRRSPTSSPTPQRRAPAVPPARPGSRGPAPGPPPAGSALGGAPPVPSRPGASPDPFGPPPQVPSRPNRAPPGVPSRSGQASPSRPESPRPPFDL

More lines, now with the values behind:

Molecule: 4.1N (mouse brain) (from UniProt Q9Z2H5 1-879)
binding [2]: binds

Molecule: native GluA4 (mouse brain) (from UniProt Q9Z2W8 21-902) (receptor)
binding [3]: binds

Reference: paper PMC2806832
